{"source": "patent US20160166532A1", "about": "“CARNITINE PALMITOYLTRANSFERASE 1 INHIBITORS FOR INHIBITION OF PATHOLOGICAL ANGIOGENESIS” (VIB VZW, priority 2013, published 2016)", "test_system": "EC spheroids", "test": "In vitro EC spheroid sprouting assay", "assay_type": "cell-based", "settings": "20 mM supplementation", "source_text": "In angiogenic EC monolayers, CPT1a knock down (KD) reduced EC proliferation by 40% as measured by ^3H thymidine incorporation (see FIG. 2). Furthermore, CPT1a KD EC were found more frequently in the G0/G1 phase of the cell cycle. EC migration on the other hand was not affected as measured by scratch wound assay and modified Boyden chamber even when proliferation was blocked using mitomycin C (see FIG. 3). To study the effect of CPT1a KD on vessel sprouting, an in vitro EC spheroid sprouting assay was employed. In this model, EC are cultured in suspension to form spheroids in hanging drops, embedded in a collagen I matrix and subsequently stimulated with growth factors to allow sprouts to be formed. In this model, a tip cell with filopodia leads the sprout while the stalk cells trail behind and proliferate to elongate the sprout. […] To further investigate this observation, a mosaic spheroid model was employed to assess tip cell competition. Here, 50% WT^RED and 50% WT^GFP cells are mixed and, when the spheroids have sprouted, which one is at the tip is determined. In this model, tip cell position can be determined via migration and/or proliferation. In case of a WT/WT mixture, 50% green and 50% red cells are at the tip. However, when 50% WT^RED cells are mixed with 50% CPT1a^KD/GFP cells, less green cells were present at the tip. […]", "note": "For at least one compound, name, drawing or mass did not settle the structure.", "data": [{"compound": "CC(=O)C(=O)O", "note": "[pyruvate]", "values": [{"measurement": "rescue of reduced sprouting of CPT1a knock down spheroids", "value": "rescued"}]}]}
